PubChem BioAssay AID1259308 | NCATS, 2017
The whole screen tested about 59,000 reagents; below is a random part of them. Of all reagents, about 1,510 (2.6%) were called active. 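Calls use total luciferase alone and ignore viability, so some active siRNAs may act by altering cell number.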 The numbers tell different reagents against one gene apart. Not all columns of the deposit are shown.

Screen: 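Knock-downs that increase output of a recombinant reporter protein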 (primary screen)
System: human HEK293 embryonic kidney cells stably expressing firefly luciferase (HEK-CMV-Luc2-Hygro)
Reagent: single siRNA against human genes, 0.8 pmol siRNA per well
Duration: 72 h
Read-out: 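Luciferase light (ONE-Glo) measured on one replicate plate set and viability (CellTiter-Glo) on the other, scaled to a negative control siRNA, with robust z-scores and luciferase per cell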
Direction: total luciferase, z-score and total luciferase, % of control: higher = more reporter protein produced; luciferase per cell, z-score: higher = more reporter output per viable cell
Active means: 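Active when the median/MAD z-score for overall luciferase is greater than 3; a gene was taken forward for validation with new siRNAs if at least two of its three siRNAs passed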
Meaning of the calls: active = raised luciferase; inactive = no rise

| gene | reagent no. | total luciferase, z-score | total luciferase, % of control | luciferase per cell, z-score | Outcome |
| --- | --- | --- | --- | --- | --- |
| MBTPS1 (GeneID 8720) | 1 | 1.6 | 114 | 1.11 | inactive |
| MBTPS1 (GeneID 8720) | 2 | 0.186 | 85.6 | 0.0572 | inactive |
| MBTPS1 (GeneID 8720) | 3 | -1.05 | 60.9 | -1.97 | inactive |
| NBR1 (GeneID 4077) | 1 | -1.88 | 44.5 | -1.23 | inactive |
| NBR1 (GeneID 4077) | 2 | -0.714 | 67.7 | -0.316 | inactive |
| NBR1 (GeneID 4077) | 3 | -1.74 | 47.2 | -2.46 | inactive |
| ARSA (GeneID 410) | 1 | -0.433 | 73.3 | -0.411 | inactive |
| ARSA (GeneID 410) | 2 | -0.0876 | 80.1 | 0.00721 | inactive |
| ARSA (GeneID 410) | 3 | 2.04 | 122 | 2.86 | inactive |
| CD274 (GeneID 29126) | 1 | 0.35 | 88.8 | -0.0484 | inactive |
| CD274 (GeneID 29126) | 2 | -0.853 | 64.9 | -1.1 | inactive |
| CD274 (GeneID 29126) | 3 | -0.0449 | 81 | 0.126 | inactive |
| TSC2 (GeneID 7249) | 1 | 1.52 | 112 | 0.316 | inactive |
| TSC2 (GeneID 7249) | 2 | -0.251 | 76.9 | 0.588 | inactive |
| TSC2 (GeneID 7249) | 3 | -1.3 | 56.1 | -1.48 | inactive |
| NDUFV2 (GeneID 4729) | 1 | -0.158 | 78.7 | 0.563 | inactive |
| NDUFV2 (GeneID 4729) | 2 | -0.0742 | 80.4 | -0.0877 | inactive |
| NDUFV2 (GeneID 4729) | 3 | 2.08 | 123 | 2.38 | inactive |
| RLN3 (GeneID 117579) | 1 | 0.49 | 91.6 | -0.416 | inactive |
| RLN3 (GeneID 117579) | 2 | 0.0515 | 82.9 | -0.109 | inactive |
| RLN3 (GeneID 117579) | 3 | 3.38 | 149 | 1.63 | active |
| FLJ13224 (GeneID 79857) | 1 | 0.424 | 90.3 | 0.514 | inactive |
| FLJ13224 (GeneID 79857) | 2 | 0.753 | 96.9 | 0.806 | inactive |
| FLJ13224 (GeneID 79857) | 3 | -0.885 | 64.3 | -0.964 | inactive |

Continued; the last 2 above are carried over.
| gene | reagent no. | total luciferase, z-score | total luciferase, % of control | luciferase per cell, z-score | Outcome |
| --- | --- | --- | --- | --- | --- |
| FLJ13224 (GeneID 79857) | 2 | 0.753 | 96.9 | 0.806 | inactive |
| FLJ13224 (GeneID 79857) | 3 | -0.885 | 64.3 | -0.964 | inactive |
| WDR77 (GeneID 79084) | 1 | 1.03 | 102 | 0.549 | inactive |
| WDR77 (GeneID 79084) | 2 | 0.0437 | 82.8 | -0.296 | inactive |
| WDR77 (GeneID 79084) | 3 | -2.37 | 34.7 | -2.42 | inactive |
| OR9K2 (GeneID 441639) | 1 | 0.0598 | 83.1 | 1.09 | inactive |
| OR9K2 (GeneID 441639) | 2 | -1.02 | 61.7 | -0.499 | inactive |
| OR9K2 (GeneID 441639) | 3 | 1.48 | 111 | 0.853 | inactive |
| TRAPPC11 (GeneID 60684) | 1 | 0.347 | 88.8 | -0.107 | inactive |
| TRAPPC11 (GeneID 60684) | 2 | -0.925 | 63.5 | -0.978 | inactive |
| TRAPPC11 (GeneID 60684) | 3 | 0.0427 | 82.7 | -0.149 | inactive |
| OR1C1 (GeneID 26188) | 1 | 1.11 | 104 | 0.113 | inactive |
| OR1C1 (GeneID 26188) | 2 | -0.0315 | 81.3 | -0.145 | inactive |
| OR1C1 (GeneID 26188) | 3 | -0.608 | 69.8 | -0.417 | inactive |
| EVI5 (GeneID 7813) | 1 | 1.05 | 103 | 0.749 | inactive |
| EVI5 (GeneID 7813) | 2 | 0.0965 | 83.8 | 1.15 | inactive |
| EVI5 (GeneID 7813) | 3 | 1.13 | 104 | 0.457 | inactive |
